Source: the supplement of paper PMC11006884
The list shows a part of the results, in another mix than the full data.

Chains of the proteins cited; added tags and fusions are not shown. Lines headed by an entry give the natural chain unless they say otherwise; changes in a name come on top.
UniProt P40763, whole entry: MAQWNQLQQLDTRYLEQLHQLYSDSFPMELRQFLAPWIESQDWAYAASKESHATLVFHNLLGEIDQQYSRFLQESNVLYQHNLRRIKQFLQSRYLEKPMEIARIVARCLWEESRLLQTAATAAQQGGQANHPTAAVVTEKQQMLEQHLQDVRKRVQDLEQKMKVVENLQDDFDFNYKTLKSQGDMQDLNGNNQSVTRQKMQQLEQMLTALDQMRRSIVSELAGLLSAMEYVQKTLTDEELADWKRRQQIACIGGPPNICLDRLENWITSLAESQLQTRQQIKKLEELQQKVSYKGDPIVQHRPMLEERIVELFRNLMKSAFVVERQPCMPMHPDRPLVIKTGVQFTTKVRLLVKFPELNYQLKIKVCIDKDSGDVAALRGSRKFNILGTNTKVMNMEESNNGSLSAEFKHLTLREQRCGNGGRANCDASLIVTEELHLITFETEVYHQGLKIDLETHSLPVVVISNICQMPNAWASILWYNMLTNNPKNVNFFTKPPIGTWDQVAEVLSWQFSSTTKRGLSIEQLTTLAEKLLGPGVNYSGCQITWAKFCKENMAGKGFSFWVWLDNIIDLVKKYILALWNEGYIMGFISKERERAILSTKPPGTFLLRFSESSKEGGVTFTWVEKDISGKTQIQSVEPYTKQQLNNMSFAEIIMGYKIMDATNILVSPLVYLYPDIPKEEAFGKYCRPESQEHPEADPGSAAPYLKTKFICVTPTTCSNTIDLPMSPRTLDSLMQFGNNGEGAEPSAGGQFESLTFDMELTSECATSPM
UniProt P34896: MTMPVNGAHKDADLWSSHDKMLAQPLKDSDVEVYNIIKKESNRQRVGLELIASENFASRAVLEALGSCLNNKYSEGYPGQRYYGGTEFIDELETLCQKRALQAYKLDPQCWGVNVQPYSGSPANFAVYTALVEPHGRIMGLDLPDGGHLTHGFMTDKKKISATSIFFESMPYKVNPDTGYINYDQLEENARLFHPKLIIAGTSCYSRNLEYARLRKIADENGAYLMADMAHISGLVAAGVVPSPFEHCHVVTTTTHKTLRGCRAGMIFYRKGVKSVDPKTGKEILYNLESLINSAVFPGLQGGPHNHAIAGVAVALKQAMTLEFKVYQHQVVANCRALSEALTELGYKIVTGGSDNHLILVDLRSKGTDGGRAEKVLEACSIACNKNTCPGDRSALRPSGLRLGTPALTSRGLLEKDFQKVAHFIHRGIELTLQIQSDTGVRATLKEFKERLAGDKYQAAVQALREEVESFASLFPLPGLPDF
UniProt P35250, whole entry, looked up: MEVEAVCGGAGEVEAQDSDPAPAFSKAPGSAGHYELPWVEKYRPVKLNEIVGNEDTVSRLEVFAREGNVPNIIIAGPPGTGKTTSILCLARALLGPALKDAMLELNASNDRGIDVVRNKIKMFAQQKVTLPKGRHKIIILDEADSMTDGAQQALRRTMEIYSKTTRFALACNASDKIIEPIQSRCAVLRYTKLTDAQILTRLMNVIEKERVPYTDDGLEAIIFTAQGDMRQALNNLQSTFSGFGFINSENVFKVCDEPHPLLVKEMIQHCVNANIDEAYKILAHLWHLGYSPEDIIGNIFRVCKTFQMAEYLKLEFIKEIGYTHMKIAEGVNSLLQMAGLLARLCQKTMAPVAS
UniProt P35658: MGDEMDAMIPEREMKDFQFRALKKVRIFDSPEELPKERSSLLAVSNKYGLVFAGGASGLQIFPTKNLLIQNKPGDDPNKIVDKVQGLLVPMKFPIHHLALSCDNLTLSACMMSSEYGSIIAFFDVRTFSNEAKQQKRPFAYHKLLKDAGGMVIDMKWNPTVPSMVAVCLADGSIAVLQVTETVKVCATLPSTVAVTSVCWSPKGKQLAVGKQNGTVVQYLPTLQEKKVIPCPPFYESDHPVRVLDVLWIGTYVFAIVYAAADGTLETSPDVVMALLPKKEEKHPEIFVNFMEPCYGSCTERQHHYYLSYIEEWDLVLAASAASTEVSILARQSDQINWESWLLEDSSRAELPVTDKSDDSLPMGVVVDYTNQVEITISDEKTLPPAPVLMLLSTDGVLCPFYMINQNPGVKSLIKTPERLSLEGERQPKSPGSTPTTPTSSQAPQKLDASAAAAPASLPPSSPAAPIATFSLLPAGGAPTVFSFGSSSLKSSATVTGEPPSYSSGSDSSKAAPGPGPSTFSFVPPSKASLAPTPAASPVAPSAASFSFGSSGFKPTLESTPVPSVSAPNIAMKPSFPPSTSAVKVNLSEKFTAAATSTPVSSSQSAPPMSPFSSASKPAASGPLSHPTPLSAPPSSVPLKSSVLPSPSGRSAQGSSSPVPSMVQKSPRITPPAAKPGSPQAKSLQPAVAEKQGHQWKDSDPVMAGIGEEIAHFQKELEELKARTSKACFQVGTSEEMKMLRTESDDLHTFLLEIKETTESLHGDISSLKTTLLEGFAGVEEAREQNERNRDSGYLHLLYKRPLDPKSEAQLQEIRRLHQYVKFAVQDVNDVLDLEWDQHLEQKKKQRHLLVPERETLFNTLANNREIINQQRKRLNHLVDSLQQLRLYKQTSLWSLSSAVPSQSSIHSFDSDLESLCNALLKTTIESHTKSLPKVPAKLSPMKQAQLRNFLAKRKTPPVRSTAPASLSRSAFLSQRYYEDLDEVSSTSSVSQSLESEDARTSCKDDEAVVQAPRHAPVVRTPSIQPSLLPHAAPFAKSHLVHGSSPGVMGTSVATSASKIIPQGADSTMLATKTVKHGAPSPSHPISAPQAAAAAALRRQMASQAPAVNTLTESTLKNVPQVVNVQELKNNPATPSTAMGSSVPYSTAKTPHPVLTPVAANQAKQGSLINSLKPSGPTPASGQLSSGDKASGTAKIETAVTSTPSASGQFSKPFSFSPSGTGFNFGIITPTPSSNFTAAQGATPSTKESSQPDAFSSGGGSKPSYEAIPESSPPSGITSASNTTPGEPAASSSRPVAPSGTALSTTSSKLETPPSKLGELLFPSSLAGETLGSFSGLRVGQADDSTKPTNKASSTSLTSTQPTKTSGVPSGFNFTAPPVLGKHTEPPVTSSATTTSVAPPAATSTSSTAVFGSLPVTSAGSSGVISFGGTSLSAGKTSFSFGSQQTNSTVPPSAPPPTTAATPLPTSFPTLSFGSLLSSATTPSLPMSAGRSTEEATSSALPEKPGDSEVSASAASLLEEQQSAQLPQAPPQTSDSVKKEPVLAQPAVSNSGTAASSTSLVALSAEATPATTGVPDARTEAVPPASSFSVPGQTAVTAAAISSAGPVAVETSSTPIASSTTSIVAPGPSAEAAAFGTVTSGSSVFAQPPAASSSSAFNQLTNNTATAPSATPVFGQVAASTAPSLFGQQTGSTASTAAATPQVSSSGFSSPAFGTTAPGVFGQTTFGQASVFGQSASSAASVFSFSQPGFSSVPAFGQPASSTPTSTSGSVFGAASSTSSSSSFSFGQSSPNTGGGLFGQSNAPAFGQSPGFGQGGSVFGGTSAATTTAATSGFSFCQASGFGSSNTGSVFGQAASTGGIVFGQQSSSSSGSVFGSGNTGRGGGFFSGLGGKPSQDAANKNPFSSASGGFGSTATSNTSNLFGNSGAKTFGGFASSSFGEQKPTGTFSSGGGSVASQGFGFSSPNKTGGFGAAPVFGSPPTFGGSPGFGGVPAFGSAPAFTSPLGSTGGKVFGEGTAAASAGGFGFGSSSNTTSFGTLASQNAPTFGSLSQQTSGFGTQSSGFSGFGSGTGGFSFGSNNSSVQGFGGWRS
UniProt P31040: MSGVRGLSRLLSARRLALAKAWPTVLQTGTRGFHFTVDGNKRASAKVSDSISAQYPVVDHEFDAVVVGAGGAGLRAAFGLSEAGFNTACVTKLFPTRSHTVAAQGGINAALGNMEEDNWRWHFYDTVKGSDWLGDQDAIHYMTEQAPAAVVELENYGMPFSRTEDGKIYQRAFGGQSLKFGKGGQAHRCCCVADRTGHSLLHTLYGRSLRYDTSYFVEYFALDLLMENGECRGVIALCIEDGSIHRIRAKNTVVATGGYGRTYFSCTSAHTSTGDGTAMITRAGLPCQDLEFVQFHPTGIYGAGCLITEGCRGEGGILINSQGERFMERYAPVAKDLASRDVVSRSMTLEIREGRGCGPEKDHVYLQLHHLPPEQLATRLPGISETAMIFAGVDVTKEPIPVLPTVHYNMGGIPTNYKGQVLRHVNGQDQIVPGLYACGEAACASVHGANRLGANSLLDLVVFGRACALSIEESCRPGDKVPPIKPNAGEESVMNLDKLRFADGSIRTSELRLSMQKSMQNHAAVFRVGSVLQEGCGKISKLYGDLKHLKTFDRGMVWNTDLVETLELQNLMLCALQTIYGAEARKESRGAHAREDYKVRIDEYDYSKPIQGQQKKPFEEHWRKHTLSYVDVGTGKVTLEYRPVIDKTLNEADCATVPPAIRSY
UniProt P41252: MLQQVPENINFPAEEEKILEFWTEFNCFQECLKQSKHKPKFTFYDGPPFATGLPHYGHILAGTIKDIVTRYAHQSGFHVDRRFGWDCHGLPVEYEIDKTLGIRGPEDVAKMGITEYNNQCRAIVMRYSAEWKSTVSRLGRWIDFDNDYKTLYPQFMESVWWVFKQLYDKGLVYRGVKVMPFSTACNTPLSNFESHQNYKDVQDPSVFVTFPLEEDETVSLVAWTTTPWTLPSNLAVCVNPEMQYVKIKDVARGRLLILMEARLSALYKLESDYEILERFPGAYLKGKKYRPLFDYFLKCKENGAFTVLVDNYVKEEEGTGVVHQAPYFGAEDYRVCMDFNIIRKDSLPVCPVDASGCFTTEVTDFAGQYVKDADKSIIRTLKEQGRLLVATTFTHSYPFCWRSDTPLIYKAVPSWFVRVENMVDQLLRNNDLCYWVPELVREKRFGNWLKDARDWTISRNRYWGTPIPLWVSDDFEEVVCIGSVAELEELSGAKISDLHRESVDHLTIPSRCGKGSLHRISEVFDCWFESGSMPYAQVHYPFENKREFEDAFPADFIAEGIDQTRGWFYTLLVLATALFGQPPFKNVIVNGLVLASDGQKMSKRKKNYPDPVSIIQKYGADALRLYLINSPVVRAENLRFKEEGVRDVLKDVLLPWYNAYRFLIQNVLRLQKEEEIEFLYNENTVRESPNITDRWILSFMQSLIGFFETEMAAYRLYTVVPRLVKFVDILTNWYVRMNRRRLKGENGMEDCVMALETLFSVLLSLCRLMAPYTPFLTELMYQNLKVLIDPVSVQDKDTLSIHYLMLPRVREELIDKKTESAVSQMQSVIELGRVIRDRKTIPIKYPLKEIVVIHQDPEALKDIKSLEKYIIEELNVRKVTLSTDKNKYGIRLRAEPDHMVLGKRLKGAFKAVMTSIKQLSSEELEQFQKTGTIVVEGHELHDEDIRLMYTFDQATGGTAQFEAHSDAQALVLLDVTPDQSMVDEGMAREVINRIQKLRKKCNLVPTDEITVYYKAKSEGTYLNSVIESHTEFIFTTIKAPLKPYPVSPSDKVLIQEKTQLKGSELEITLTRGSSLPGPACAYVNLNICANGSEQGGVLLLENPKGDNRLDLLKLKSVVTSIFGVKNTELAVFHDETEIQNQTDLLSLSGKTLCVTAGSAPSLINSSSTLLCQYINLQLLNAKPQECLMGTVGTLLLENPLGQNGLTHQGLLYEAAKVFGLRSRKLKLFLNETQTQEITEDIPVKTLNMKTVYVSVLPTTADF
UniProt P34949: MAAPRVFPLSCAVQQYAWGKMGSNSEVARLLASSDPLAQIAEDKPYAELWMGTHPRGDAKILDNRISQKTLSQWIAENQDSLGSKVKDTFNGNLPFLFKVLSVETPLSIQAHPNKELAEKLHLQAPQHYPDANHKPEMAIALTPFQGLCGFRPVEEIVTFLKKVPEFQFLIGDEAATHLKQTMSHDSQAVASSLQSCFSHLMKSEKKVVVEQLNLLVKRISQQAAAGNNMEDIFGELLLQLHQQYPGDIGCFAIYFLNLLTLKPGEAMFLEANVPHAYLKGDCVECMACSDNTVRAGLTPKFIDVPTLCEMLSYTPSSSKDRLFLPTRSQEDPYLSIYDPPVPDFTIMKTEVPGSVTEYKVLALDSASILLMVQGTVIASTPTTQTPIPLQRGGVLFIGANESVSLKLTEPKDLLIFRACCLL
UniProt P36405: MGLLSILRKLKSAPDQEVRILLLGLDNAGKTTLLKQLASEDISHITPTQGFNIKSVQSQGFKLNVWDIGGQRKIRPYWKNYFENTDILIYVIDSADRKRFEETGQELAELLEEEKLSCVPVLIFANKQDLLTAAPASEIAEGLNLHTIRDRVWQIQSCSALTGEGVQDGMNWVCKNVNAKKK
UniProt P31946: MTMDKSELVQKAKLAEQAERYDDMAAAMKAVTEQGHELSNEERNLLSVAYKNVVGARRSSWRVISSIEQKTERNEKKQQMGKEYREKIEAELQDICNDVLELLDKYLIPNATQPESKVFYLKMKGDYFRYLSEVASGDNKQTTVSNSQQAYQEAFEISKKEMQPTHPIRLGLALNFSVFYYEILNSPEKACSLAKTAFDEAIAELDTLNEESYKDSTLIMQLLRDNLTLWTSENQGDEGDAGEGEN

Compound: COC(=O)C#Cc1ccccc1 [methyl 3-phenylpropiolate]
Test: log2 ratio of iodoacetamide-alkyne labeling of the cysteine site, DMSO over compound (competition); higher = stronger covalent engagement of the cysteine by the compound, active = 1 or more
Conditions: 500 µM; treatment time 1 h; system: HEK293T cell lysate
Procedure, shortened: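 Three replicates, each with duplicate channels, were prepared from HEK293T lysate (2 mg/mL) treated with vehicle or electrophile at 500 µM for 1 h at ambient temperature. Iodoacetamide alkyne was then applied for 1 h, and samples were clicked to sCIP-TMT reagents, pooled, trypsin-digested overnight at 37 °C, enriched on streptavidin, acid-eluted and analysed on Orbitrap Eclipse LC-MS/MS with FAIMS, with FragPipe quantification. The log2 competition ratio per cysteine is the mean control-channel divided by the mean compound-channel reporter intensity. Cysteines quantified in only one replicate were left out.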

log2 ratio of iodoacetamide-alkyne labeling, inactive:
STAT3 C259 (UniProt P40763) 0.646, ETV6 C8 (UniProt P41212) 0.678, SHMT1 C68 (UniProt P34896) 0.0107, MCM5 C355 (UniProt P33992) 0.104, RFC2 C171 (UniProt P35250) 0.188, MTOR C300 (UniProt P42345) 0.376, ADD1 C253 (UniProt P35611) 0.101, NUP214 C1003 (UniProt P35658) 0.236, SDHA C305 (UniProt P31040) 0.021, TTK C395 (UniProt P33981) 0.269, MYH10 C1238 (UniProt P35580) 0.111, FDFT1 C374 (UniProt P37268) 0.541, IARS C400 (UniProt P41252) 0.208, MPI C11 (UniProt P34949) 0.0754, HSPA4 C245 (UniProt P34932) 0.117, ARL3 C118 (UniProt P36405) 0.684, HSPA9 C317 (UniProt P38646) 0.461, YWHAB C96 (UniProt P31946) -0.0582, CSK C31 (UniProt P41240) -0.0267, TMPO C363 (UniProt P42167) 0.444, MYH9 C1437 (UniProt P35579) 0.114, MAT2A C214 (UniProt P31153) 0.273
